No constants are given. Whether binding was seen depends on the method and setting. For some of these results: Binding seen in cells or lysates may run through a third protein. Some results given as binding are weak or reduced against the parent protein; the word gives no strength. For some of these results: Sequences can lack the tags named with a protein.

Sequences of proteins named here, by UniProt entry; tags and fusion partners are left off. A change or cut given only in a name is not applied to a line headed by its entry. A line that says so, or that is headed by a name, gives the form on record, which may keep a tag or linker.
UniProt P14618: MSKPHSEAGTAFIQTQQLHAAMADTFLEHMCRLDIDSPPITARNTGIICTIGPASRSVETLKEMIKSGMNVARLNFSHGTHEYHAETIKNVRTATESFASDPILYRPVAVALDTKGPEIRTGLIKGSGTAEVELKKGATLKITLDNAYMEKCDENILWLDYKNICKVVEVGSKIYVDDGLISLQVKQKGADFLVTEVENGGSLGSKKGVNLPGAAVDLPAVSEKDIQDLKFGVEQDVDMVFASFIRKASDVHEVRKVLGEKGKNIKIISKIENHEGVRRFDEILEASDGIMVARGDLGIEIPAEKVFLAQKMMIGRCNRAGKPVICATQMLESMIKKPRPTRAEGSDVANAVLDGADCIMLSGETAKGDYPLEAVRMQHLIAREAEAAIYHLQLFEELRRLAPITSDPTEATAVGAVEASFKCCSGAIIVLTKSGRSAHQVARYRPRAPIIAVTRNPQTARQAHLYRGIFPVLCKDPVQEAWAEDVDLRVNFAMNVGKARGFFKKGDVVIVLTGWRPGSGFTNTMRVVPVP
PKM2^(I267&268 A) (in CAOV3 and OV90 cells) (P14618, form named): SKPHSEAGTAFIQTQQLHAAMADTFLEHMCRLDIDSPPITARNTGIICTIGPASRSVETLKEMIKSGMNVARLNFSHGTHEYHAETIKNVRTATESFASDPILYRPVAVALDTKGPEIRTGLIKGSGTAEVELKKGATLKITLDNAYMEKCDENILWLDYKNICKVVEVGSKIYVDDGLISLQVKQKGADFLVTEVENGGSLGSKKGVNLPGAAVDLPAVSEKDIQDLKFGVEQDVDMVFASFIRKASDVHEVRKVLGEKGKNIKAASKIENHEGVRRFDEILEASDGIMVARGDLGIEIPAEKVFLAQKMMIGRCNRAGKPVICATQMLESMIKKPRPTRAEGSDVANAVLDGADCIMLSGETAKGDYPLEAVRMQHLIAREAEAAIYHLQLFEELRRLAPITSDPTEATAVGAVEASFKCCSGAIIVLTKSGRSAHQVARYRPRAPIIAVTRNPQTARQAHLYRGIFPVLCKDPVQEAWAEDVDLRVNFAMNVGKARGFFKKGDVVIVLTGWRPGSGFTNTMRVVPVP

Here are results for three substances from paper PMC11077861.

Assay [1] deals with T1, Flag-tagged ESM1 (in 293T cells) (human) (UniProt Q9NQ30).
T1 sequence: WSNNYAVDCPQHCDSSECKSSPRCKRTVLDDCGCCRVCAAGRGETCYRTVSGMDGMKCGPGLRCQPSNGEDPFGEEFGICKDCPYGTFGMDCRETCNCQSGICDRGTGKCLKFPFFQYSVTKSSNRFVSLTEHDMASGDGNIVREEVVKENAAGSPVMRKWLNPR
In words: co-IP; tagged proteins co-transfected into HEK-293T cells, IP and Western blot. A general note: Immunoblotting shows a protein as a band on a membrane.

In assay [2] the target is Pyruvate kinase isozyme M2 (PKM2), endogenous (human (endogenous in OV90, CAOV3, SKOV3 and A2780)) (UniProt P14618). Briefly: Western blot of dimeric PKM2; ESM1-overexpressing CAOV3 and OV90 cells with PKM2^(I267&268 A); whether cross-linked as in Fig. 3F is not said.
Assay [3] concerns the target T2, ESM1 overexpressed in ovarian cancer cells (Flag-tagged) (human) (UniProt Q9NQ30).
T2 sequence: T1 sequence
Briefly: co-IP; lysates of ovarian cancer cell lines (OV90, CAOV3, SKOV3) in IP lysis buffer, antibody overnight at 4 °C, protein A/G beads, Western blot; with or without ESM1 overexpression or knockdown; treatments: ginkgolic acid, simvastatin, Shikonin, UBA2 shRNA.

Assay [4] concerns the target T3, Endothelial cell specific molecule 1 (ESM1), endogenous (human (endogenous in OV90 and CAOV3)) (UniProt Q9NQ30).
T3 sequence: T1 sequence
The description is as above.

Take “GST-tagged PKM2 (in 293T cells) (from UniProt P14618 2-531) (enzyme)”: the binding entry in assay [1] is “binds”.

With “PKM2^(I267&268 A) (in CAOV3 and OV90 cells) (from UniProt P14618 2-531) (enzyme)”, the binding result in assay [2] was “no binding”. On to “Pyruvate kinase isozyme M2 (PKM2), endogenous (from UniProt P14618 1-531) (enzyme)”, for which the binding entry in assay [3] and in assay [4] was “binds” each time.
